# Data taken from PubChem BioAssay AID504834 (National Center for Advancing Translational Sciences (NCATS), 2011).
# In all, about 320,000 compounds went through this assay and about 22,000 (6.9%) were called active. This list was built around the results that the source calls inconclusive (neither active nor inactive); the mix of calls is not that of the screen. Calls come from the whole dose curve; as a rule, active = well fitted inhibition curve with a large enough effect; inconclusive = small, poorly fitted or top-dose-only effect, or another doubt; inactive = no such curve, though single readings can be large or run the other way. Where the call is inconclusive, the potency comes from a doubtful curve fit.
# Test: Primary qHTS for delayed death inhibitors of the malarial parasite plastid, 96 hour incubation
# Details: P. falciparum luciferase reporter growth; series mostly up to 28.7 µM; activity change, negative = inhibition: at the top concentration
# Procedure, shortened: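 Compounds incubated with erythrocytes infected by luciferase-expressing P. falciparum (2% hematocrit, 0.05% parasitemia final) for 96 hours, 37 C in 5% CO2. Growth inhibition scored as decreased luciferase luminescence.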
# % is set by controls: 0 for no effect and ±100 for the full control effect; potency is the fitted concentration of half-maximal effect.
Compound,"activity change, negative = inhibition",Potency
O=C(c1cccc(-n2cccc2)c1)N1CCN(S(=O)(=O)c2c(F)cccc2F)CC1,inactive: 63.5%,–
COc1ccc2[nH]c(=O)c(CN(c3ccccc3)S(=O)(=O)c3ccccc3)cc2c1,–,"inconclusive: 9.28 µM [inhibitor, partial curve, poor fit]"
COC(=O)C1=C(c2cccc(OCc3ccccc3)c2)C[C@@H]2CC[C@H]1N2C(=O)NCCc1ccc(F)cc1,–,"inconclusive: 9.28 µM [inhibitor, single point]"
O=C(Nc1cc(C(F)(F)F)ccc1Cl)C(Sc1ccccn1)c1ccccc1 (stereo unspecified),–,"inconclusive: 10.4 µM [inhibitor, partial curve, poor fit]"
COC(=O)c1cc(CSC(=N)N)ccc1OCCC(C)C,–,active: 6.57 µM
Cc1onc(-c2c(Cl)cccc2Cl)c1C(=O)NCc1cccs1,–,"inconclusive: 10.4 µM [inhibitor, single point]"
C=CCN1CC(c2nc3ccccc3n2Cc2cccc3ccccc23)CC1=O (stereo unspecified),–,active: 11.7 µM
Cc1cccc(CSCCNC(=O)CCSc2ccccc2)c1,–,"inconclusive: 5.22 µM [inhibitor, partial curve, poor fit]"
C(=N\NC(=Nc1ccccc1)c1ccccn1)/c1ccccn1,inactive: 27.5%,–
O=C(NNC(=O)C1CC=CCC1)c1ccccc1O (stereo unspecified),–,"inconclusive: 18.5 µM [inhibitor, single point]"
Cn1c(CSCc2ccc(Cl)cc2)n[nH]c1=S,inactive: 34.2%,–
Cc1ccc(NC(=O)/C(=C/c2cccs2)NC(=O)c2ccco2)c(C)c1,–,"inconclusive: 10.4 µM [inhibitor, single point]"
Fc1ccc(-n2cc(-c3ccccc3)c3c(NN4CCOCC4)ncnc32)cc1,–,"inconclusive: 14.7 µM [inhibitor, single point]"
CCCCC/C(=N\NC(=O)Nc1ccccc1)c1ccccc1,inactive: 1.89%,–
CCCc1cc(C(=O)N2CCCC(N3CCN(c4ccc(F)cc4)CC3)C2)no1 (stereo unspecified),–,"inconclusive: 0.0104 µM [inhibitor, full curve, poor fit]"
CC(C)(C)NCC(O)c1ccccc1Cl (stereo unspecified),–,"inconclusive: 8.49 µM [inhibitor, partial curve]"
Cc1cc(Nc2nnnn2-c2ccccc2)n(-c2ccccc2)n1,–,active: 9.28 µM
CCN(CC)CCN(C(=O)c1ccc2c(c1)CCCC2)c1nc2ccc(F)cc2s1,–,"inconclusive: 5.22 µM [inhibitor, partial curve, poor fit]"
CC12CC(NC(=O)N1c1cccc(C(=O)NCc3ccc4c(c3)OCO4)c1)c1cc(Cl)ccc1O2 (stereo unspecified),–,"inconclusive: 18.5 µM [inhibitor, single point]"
COc1cc(O)c2c(c1)OC(c1ccc(O)cc1)CC2=O (stereo unspecified),–,"inconclusive: 10.4 µM [inhibitor, single point]"
C=CCNC(=O)c1cc(-c2ccc3c(c2)OCO3)on1,inactive: 6.77%,–

# Exported with bars between the fields: two of the compounds above
Compound | activity change, negative = inhibition | Potency
COc1ccc2[nH]c(=O)c(CN(c3ccccc3)S(=O)(=O)c3ccccc3)cc2c1 | – | inconclusive: 9.28 µM [inhibitor, partial curve, poor fit]
C=CCNC(=O)c1cc(-c2ccc3c(c2)OCO3)on1 | inactive: 6.77% | –
